Consider ten molecules from PubChem BioAssay AID248 (DTP/NCI, 2004).

The test has as its system L1210 leukemia ip in BDF1 mice, survival T/C. Kind of test: NCI In Vivo Anticancer Drug Screen. Data for tumor model L1210 Leukemia (intraperitoneal) in B6D2F1 (BDF1) mice. The note with it: T/C endpoint: mean survival time, higher T/C = longer survival.
[1] abbreviates: dose: 100.0 mg/kg/injection, schedule: Q04DX003 (ip), vehicle: saline.
The mark [2] stands for this setting: dose: 200.0 mg/kg/injection, schedule: Q04DX003 (ip), vehicle: saline.

SMILES strings stand for the structures. The list is a part of this screen's results and no random one: it gathers tests that were run many times, whatever their T/C, doses with no T/C, and many T/C values between a quarter and a half above the control. Further doses and runs are listed elsewhere. T/C is the treated group as % of the vehicle group. Some entries give survivors of the animals treated and no T/C: the source holds a T/C of zero for them, seemingly a mark for toxic or unscored doses. Some survivor counts are full or nearly so, which does not show that the dose was tolerated: the source hardly ever lists a survival T/C far under the control, and the zero likely stands for such cases as well. Survivors were counted at the toxicity check, usually on the fifth day, unless a day is given; later deaths do not show. Schedule codes are those of the source, taken here to give the interval after Q, in days (D) or hours (H), and the number of doses after X. Some schedule codes hold Z or #, which are not explained here. Where survival is the endpoint, the PubChem record calls one and a half times the control and up active, and a quarter to a half above the control has no call in these data; cut-offs in other NCI protocols can differ. Counts like (3×) count equal records among those shown. Some entries hold several experiments; the results are listed from low to high. Some T/C values are followed by the survivors on the day toxicity was checked, most often the fifth; where none is given, no animal had died by that day.

As for `CCCCCCCCP(C)(=O)CCCCCCCC`, the survivor count (dose: 400.0 mg/kg/injection, schedule: Q04DX002 (ip), vehicle: Klucel (hydroxypropylcellulose) (HPC)) is 1 of 3.
On to `C=CC=O`, for which the T/C is, setting by setting: (dose: 3.2 mg/kg/injection, schedule: Q01DX001 (ip), vehicle: saline, evaluated on day 5) 103 and 105 % of control; (dose: 3.2 mg/kg/injection, schedule: Q01DX001 (ip), vehicle: saline, evaluated on day 45) 103 and 105 % of control; (dose: 4.9 mg/kg/injection, schedule: Q01DX001 (ip), vehicle: saline, evaluated on day 5) 99 and 100 % of control; (dose: 4.9 mg/kg/injection, schedule: Q01DX001 (ip), vehicle: saline, evaluated on day 45) 100 % of control (2×); (dose: 7.4 mg/kg/injection, schedule: Q01DX001 (ip), vehicle: saline, evaluated on day 5) 99 and 102 % of control; (dose: 7.4 mg/kg/injection, schedule: Q01DX001 (ip), vehicle: saline, evaluated on day 45) 100 and 102 % of control. Further, the T/C is, setting by setting: (dose: 11.0 mg/kg/injection, schedule: Q01DX001 (ip), vehicle: saline, evaluated on day 5) 101 and 105 % of control; (dose: 11.0 mg/kg/injection, schedule: Q01DX001 (ip), vehicle: saline, evaluated on day 45) 101 and 105 % of control. For the same molecule, the survivor count was 0 of 6 (dose: 12.5 mg/kg/injection, schedule: Q01DX009 (ip), vehicle: saline); 6 of 6 (dose: 15.0 mg/kg/injection, schedule: Q04DX003 (ip), vehicle: saline); 0 of 6 (dose: 25.0 mg/kg/injection, schedule: Q01DX009 (ip), vehicle: Klucel (hydroxypropylcellulose) (HPC)); 0 of 6 (dose: 25.0 mg/kg/injection, schedule: Q01DX009 (ip), vehicle: saline); 0 of 6 (dose: 25.0 mg/kg/injection, schedule: Q04DX003 (ip), vehicle: saline); 6 of 6 (dose: 30.0 mg/kg/injection, schedule: Q04DX003 (ip), vehicle: saline). Moreover, the survivor count by setting is: (dose: 50.0 mg/kg/injection, schedule: Q01DX009 (ip), vehicle: Klucel (hydroxypropylcellulose) (HPC)) 0 of 6; (dose: 50.0 mg/kg/injection, schedule: Q01DX009 (ip), vehicle: saline) 0 of 6; (dose: 50.0 mg/kg/injection, schedule: Q04DX003 (ip), vehicle: Klucel (hydroxypropylcellulose) (HPC)) 2 of 6; (dose: 50.0 mg/kg/injection, schedule: Q04DX003 (ip), vehicle: saline) 0 of 6; (dose: 100.0 mg/kg/injection, schedule: Q01DX009 (ip), vehicle: Klucel (hydroxypropylcellulose) (HPC)) 0 of 6; (dose: 100.0 mg/kg/injection, schedule: Q01DX009 (ip), vehicle: saline) 0 of 6. Besides, the survivor count is on record as 0 of 6 under setting [1]; 0 of 6 (dose: 200.0 mg/kg/injection, schedule: Q01DX009 (ip), vehicle: saline); 0 of 6 under setting [2]; 0 of 6 (dose: 400.0 mg/kg/injection, schedule: Q04DX003 (ip), vehicle: saline).
Regarding `CCOC(=O)c1nc(N)[nH]c(=O)c1CCCCc1ccccc1`, the survivor count (dose: 75.0 mg/kg/injection, schedule: Q01DX001 (ip), vehicle: saline with Tween-80) is 6 of 6.
For `NS(=O)(=O)c1ncnc2nc[nH]c12`, the T/C is 125 % of control (dose: 15.0 mg/kg/injection, schedule: Q01DX Z (ip), vehicle: methylcellulose (MC)); 125 % of control (dose: 20.0 mg/kg/injection, schedule: Q01DX Z (ip), vehicle: methylcellulose (MC)); 128 % of control (dose: 25.0 mg/kg/injection, schedule: Q01DX Z (ip), vehicle: methylcellulose (MC)); 134 % of control (dose: 33.0 mg/kg/injection, schedule: Q01DX Z (ip), vehicle: carboxymethylcellulose (CMC)); 149 % of control (dose: 37.5 mg/kg/injection, schedule: Q01DX009 (ip), vehicle: saline with Tween-80); 129 % of control (dose: 45.0 mg/kg/injection, schedule: Q04DX003 (ip), vehicle: saline). In addition, the T/C was 131 % of control (dose: 50.0 mg/kg/injection, schedule: Q01DX001 (ip), vehicle: carboxymethylcellulose (CMC)); 131 % of control (dose: 50.0 mg/kg/injection, schedule: Q01DX Z (ip), vehicle: methylcellulose (MC)); 148 % of control [4 of 6 alive] (dose: 56.25 mg/kg/injection, schedule: Q01DX009 (ip), vehicle: saline); 131 and 132 % of control (dose: 66.0 mg/kg/injection, schedule: Q04DX003 (ip), vehicle: saline); 134 % of control (dose: 75.0 mg/kg/injection, schedule: Q01DX001 (ip), vehicle: carboxymethylcellulose (CMC)); 127 % of control (dose: 100.0 mg/kg/injection, schedule: Q01DX001 (ip), vehicle: carboxymethylcellulose (CMC)). In addition, the T/C reads like this: (dose: 100.0 mg/kg/injection, schedule: Q01DX Z (ip), vehicle: methylcellulose (MC)) 131 % of control; under setting [1], 125 (2×) and 134 % of control; (dose: 114.0 mg/kg/injection, schedule: Q01DX Z (ip), vehicle: carboxymethylcellulose (CMC)) 132 % of control; (dose: 150.0 mg/kg/injection, schedule: Q04DX003 (ip), vehicle: saline) 131 [5 of 6 alive] and 135 % of control [5 of 6 alive]. Further, the survivor count (dose: 150.0 mg/kg/injection, schedule: Q01DX009 (ip), vehicle: saline with Tween-80) is 1 of 6; the survivor count (dose: 170.0 mg/kg/injection, schedule: Q01DX Z (ip), vehicle: carboxymethylcellulose (CMC)) is 3 of 6; the survivor count (dose: 200.0 mg/kg/injection, schedule: Q01DX001 (ip), vehicle: carboxymethylcellulose (CMC)) is recorded as 1 of 4; the survivor count (dose: 200.0 mg/kg/injection, schedule: Q01DX001 (ip), vehicle: saline) is on record as 3 of 6; the survivor count (dose: 225.0 mg/kg/injection, schedule: Q04DX003 (ip), vehicle: saline) is given as 5 of 6; the survivor count (dose: 255.0 mg/kg/injection, schedule: Q01DX Z (ip), vehicle: carboxymethylcellulose (CMC)) is on record as 0 of 6. For the same molecule, the survivor count (dose: 340.0 mg/kg/injection, schedule: Q04DX003 (ip), vehicle: saline) was 1 of 6; the survivor count (dose: 400.0 mg/kg/injection, schedule: Q01DX001 (ip), vehicle: carboxymethylcellulose (CMC)) is listed as 0 of 4; the survivor count (dose: 400.0 mg/kg/injection, schedule: Q01DX001 (ip), vehicle: saline) is recorded as 1 of 6.
As to `O=C(O)COc1ccccc1OCC(=O)O`, the survivor count (dose: 400.0 mg/kg/injection, schedule: Q01DX009 (ip), vehicle: Klucel (hydroxypropylcellulose) (HPC)) is 6 of 6.
Take `COc1cccc2ccccc12`: where the note is “dose: 400.0 mg/kg/injection, schedule: Q04DX003 (ip), vehicle: saline with Tween-80”, the survivor count is 2 of 6.
Consider `N#CC(C#N)N=Nc1ccc(Cl)cc1Cl`, for which the survivor count (dose: 10.0 mg/kg/injection, schedule: Q04DX002 (ip), vehicle: Klucel (hydroxypropylcellulose) (HPC)) was 2 of 3; the survivor count (dose: 20.0 mg/kg/injection, schedule: Q04DX002 (ip), vehicle: Klucel (hydroxypropylcellulose) (HPC)) is listed as 0 of 3; the survivor count (dose: 40.0 mg/kg/injection, schedule: Q04DX002 (ip), vehicle: Klucel (hydroxypropylcellulose) (HPC)) is 0 of 3.
As for `Nc1ccc(C(=O)N/N=C/c2ccccc2[N+](=O)[O-])cc1`, the survivor count was 5 of 5 (dose: 50.0 mg/kg/injection, schedule: Q01DX009 (ip), vehicle: other); 5 of 5 (dose: 100.0 mg/kg/injection, schedule: Q01DX009 (ip), vehicle: other); 4 of 5 (dose: 200.0 mg/kg/injection, schedule: Q01DX009 (ip), vehicle: other).
On to `N=C(N)Sc1cc(O)ccc1O`, for which the survivor count (dose: 400.0 mg/kg/injection, schedule: Q04DX003 (ip), vehicle: alcohol) was 4 of 6.
For the molecule `NC(=O)CN1C(=O)C2C3CCC(O3)C2C1=O` (stereo unspecified), under setting [2], the survivor count is recorded as 0 of 3.
